Consider six substances from publication PMC3820547.

By UniProt entry, the sequences of proteins in these tests, tags left out. Where a name states a change or a piece, a line headed by the entry shows the natural chain unless it says otherwise.
UniProt Q9UYX9: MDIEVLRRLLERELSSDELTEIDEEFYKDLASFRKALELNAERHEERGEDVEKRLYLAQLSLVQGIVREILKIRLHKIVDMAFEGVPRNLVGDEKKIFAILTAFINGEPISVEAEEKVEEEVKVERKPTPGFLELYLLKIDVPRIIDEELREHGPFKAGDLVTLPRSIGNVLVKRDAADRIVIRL
UniProt Q9UYR8: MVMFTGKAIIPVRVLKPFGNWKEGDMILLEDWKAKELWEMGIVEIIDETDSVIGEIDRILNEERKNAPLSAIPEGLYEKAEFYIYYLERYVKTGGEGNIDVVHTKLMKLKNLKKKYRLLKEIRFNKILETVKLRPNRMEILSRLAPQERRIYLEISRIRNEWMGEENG
UniProt Q9V233: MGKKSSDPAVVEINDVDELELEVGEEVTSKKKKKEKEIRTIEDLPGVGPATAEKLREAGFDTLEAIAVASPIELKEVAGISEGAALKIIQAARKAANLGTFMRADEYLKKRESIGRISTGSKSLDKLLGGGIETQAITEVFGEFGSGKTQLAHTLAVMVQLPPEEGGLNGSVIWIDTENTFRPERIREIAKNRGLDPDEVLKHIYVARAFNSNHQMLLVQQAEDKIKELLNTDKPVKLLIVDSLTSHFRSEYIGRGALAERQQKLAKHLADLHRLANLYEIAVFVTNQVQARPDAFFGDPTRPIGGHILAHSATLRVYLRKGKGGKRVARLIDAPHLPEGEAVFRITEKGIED
UniProt Q9V2F4: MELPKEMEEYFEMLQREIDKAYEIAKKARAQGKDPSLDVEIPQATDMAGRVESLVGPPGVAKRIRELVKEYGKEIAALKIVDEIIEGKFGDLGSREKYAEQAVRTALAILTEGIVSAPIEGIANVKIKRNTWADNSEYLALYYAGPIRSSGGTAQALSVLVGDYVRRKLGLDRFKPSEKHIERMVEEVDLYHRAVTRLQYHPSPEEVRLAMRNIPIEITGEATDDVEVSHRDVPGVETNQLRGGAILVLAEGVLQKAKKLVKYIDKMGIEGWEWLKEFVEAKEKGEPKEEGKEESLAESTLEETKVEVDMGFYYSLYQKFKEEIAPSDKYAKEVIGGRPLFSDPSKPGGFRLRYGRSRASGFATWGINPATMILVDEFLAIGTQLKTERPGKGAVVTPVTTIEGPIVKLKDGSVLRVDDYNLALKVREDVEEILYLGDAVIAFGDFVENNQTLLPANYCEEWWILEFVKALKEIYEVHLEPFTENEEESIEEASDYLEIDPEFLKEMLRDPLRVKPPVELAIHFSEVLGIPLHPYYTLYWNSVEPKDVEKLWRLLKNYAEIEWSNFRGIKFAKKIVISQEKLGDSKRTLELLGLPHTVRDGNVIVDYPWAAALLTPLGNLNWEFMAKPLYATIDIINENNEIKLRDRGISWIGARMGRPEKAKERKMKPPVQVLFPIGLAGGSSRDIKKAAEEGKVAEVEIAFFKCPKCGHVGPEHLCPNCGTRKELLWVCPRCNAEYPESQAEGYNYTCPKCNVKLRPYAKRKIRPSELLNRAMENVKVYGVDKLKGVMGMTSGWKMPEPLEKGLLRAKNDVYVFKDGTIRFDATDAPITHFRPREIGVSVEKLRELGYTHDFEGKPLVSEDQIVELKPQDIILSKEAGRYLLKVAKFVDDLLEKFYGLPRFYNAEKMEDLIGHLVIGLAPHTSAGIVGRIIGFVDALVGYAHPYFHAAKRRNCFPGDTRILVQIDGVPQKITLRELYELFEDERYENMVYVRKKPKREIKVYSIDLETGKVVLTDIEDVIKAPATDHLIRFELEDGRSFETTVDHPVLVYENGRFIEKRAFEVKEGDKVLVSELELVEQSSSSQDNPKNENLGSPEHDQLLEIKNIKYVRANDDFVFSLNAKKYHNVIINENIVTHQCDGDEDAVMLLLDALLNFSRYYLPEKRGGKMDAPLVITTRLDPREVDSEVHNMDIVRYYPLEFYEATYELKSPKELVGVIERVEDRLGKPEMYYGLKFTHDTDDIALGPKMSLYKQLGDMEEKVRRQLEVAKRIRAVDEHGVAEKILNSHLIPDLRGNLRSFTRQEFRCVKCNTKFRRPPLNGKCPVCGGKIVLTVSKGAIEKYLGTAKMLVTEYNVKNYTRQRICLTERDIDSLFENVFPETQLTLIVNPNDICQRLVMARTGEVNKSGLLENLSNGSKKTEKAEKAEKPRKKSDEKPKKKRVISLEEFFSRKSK
UniProt Q9UYR4: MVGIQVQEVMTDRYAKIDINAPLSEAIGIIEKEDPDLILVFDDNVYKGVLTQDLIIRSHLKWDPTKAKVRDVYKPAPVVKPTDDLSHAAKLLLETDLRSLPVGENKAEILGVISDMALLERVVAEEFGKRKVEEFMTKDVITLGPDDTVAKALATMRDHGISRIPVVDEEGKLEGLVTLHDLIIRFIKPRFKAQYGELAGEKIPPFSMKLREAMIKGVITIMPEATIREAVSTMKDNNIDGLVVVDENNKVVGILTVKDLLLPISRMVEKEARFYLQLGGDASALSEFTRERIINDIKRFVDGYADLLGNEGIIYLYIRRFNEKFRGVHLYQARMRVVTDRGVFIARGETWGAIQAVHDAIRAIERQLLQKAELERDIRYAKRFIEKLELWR

The target in assay [1] is T1, PCNA (Q9UYX8), HIS-tagged bait (Pyrococcus abyssi) (UniProt Q9UYX8).
T1 sequence: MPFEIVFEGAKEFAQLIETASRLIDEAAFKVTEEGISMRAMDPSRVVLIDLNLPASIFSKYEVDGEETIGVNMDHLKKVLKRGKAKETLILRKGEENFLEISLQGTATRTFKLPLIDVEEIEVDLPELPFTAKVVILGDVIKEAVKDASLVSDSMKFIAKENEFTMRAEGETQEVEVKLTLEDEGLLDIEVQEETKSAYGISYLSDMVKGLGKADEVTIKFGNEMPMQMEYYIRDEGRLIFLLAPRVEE
Description: affinity purification with mass spectrometry; 10-30 ug of HIS- or GST-tagged bait immobilised on 2 mg cobalt or glutathione magnetic beads, incubated with 4 ml P. abyssi protein extract 3 h at 4°C, washed with PBS; two assays for each bait, without (nuc-) and with (nuc+) DNAse/RNAse treatment of the purified complexes; preys identified by LC-MS/MS; only the target purified.

For assay [2], the target named is T2, Primase small subunit P41 (Q9V292), HIS-tagged (Pyrococcus abyssi) (UniProt Q9V292).
T2 sequence: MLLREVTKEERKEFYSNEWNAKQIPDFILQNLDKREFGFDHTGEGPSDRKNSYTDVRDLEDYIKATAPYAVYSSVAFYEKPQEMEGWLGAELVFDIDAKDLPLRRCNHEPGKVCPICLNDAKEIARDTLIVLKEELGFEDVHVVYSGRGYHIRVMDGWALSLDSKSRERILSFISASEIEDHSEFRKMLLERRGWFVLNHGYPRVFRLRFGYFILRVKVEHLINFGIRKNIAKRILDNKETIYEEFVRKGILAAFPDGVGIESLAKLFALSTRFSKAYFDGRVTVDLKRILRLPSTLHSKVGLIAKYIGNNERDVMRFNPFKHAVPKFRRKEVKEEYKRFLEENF
The description is as above.

Assay [3] deals with Gins 51 (Q9UYX9), HIS-tagged bait (Pyrococcus abyssi) (UniProt Q9UYX9). Described as above.
For assay [4], the target named is T3, NucS (Q9V2E8), HIS-tagged bait (Pyrococcus abyssi) (UniProt Q9V2E8).
T3 sequence: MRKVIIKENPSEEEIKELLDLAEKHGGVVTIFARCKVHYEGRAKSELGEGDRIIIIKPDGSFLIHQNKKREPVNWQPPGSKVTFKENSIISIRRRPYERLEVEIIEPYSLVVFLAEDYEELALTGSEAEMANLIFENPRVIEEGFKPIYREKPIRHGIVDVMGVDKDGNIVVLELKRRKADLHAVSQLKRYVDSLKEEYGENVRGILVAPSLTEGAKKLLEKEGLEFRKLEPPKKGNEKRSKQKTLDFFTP
The assay is described as above.

Assay [5] has as its target T4, Rec-J like exonuclease (Q9V2K8), HIS-tagged bait (Pyrococcus abyssi) (UniProt Q9V2K8).
T4 sequence: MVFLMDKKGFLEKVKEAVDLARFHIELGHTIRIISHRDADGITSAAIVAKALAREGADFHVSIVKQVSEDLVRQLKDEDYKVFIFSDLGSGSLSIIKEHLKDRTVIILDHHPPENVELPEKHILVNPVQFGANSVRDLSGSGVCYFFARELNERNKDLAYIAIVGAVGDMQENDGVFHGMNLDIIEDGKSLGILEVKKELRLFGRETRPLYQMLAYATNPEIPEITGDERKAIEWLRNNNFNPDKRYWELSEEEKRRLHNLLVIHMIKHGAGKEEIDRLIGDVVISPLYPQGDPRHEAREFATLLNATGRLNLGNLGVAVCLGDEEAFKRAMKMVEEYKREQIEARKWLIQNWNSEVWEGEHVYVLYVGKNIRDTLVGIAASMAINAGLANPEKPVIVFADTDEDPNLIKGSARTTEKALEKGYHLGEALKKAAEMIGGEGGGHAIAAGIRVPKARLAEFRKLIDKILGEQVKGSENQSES
As to the kind of experiment: affinity purification with mass spectrometry; as a1, the nuclease free assay (nuc-) alone; only the target purified.

Assay [6] concerns the target T5, RadB (Q9V2F6), HIS-tagged bait (Pyrococcus abyssi) (UniProt Q9V2F6).
T5 sequence: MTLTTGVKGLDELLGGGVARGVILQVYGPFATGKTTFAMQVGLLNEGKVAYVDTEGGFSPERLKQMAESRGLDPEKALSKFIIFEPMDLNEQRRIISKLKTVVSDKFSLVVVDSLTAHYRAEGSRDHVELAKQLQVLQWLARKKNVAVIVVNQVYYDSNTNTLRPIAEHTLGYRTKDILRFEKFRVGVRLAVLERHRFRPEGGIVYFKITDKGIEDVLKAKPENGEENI
Description: affinity purification with mass spectrometry; 10-30 ug of HIS- or GST-tagged bait immobilised on 2 mg cobalt or glutathione magnetic beads, incubated with 4 ml P. abyssi protein extract 3 h at 4°C, washed with PBS; two assays for each bait, without (nuc-) and with (nuc+) DNAse/RNAse treatment of the purified complexes; preys identified by LC-MS/MS; only the target purified.

The target in assay [7] is T6, NAD-dependant protein deacetylase (Q9UZE7), HIS-tagged bait (Pyrococcus abyssi) (UniProt Q9UZE7).
T6 sequence: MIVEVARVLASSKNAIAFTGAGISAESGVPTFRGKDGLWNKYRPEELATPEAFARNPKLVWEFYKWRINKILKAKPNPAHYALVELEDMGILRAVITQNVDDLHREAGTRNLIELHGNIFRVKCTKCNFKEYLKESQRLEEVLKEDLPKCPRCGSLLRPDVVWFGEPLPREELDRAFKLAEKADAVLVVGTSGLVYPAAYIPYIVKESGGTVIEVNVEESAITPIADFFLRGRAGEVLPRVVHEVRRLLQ
The description is as above.

The target of assay [8] is Gins 23 (Q9UYR8), HIS-tagged bait (Pyrococcus abyssi) (UniProt Q9UYR8). The assay is described as above.
Assay [9] addresses T4, Rec-J like exonuclease (Q9V2K8), HIS-tagged bait (Pyrococcus abyssi). Description: condition: only after DNAse/RNAse treatment of the purified complexes (nuc+); affinity purification with mass spectrometry; as a1, the assay with nucleotide degradation (nuc+) alone: purified complexes incubated with 80/1.2 units DNAse/RNAse mix 45 min in PBS at room temperature; only the target purified.

Results are given in words; binding and its absence hold for the method and conditions named. Binding seen in cells or lysates may run through a third protein. A yes stands for co-enrichment or nearness to the bait. Other partners may have been found. For some of these results: No binding means not detected with the bait. For some of these results: Where a sequence is shown, tags or fusion partners need not be part of it.

Consider Pab0431, endogenous, for which, in assay [1], the binding result is listed as “binds”. As for “RadA, endogenous (from UniProt Q9V233 1-353)”, the binding entry in [2] is reported as “binds”.

On to “polymerase subunit of PolD, endogenous (from UniProt Q9V2F4)”, for which the binding entry in [3] is “binds”. For the substance Hef/XPF protein, endogenous, in [4], the binding result is listed as “binds”. With “small subunit of the loading factor RFC, endogenous”, the binding entry in assay [1] is “binds”. As to “Pab0961, endogenous (from UniProt Q9UYR4)”, the binding result in [5] is “binds”; in assay [6], “binds”; in assay [7] it was “binds”; in [8], “binds”; in assay [9], “no binding”.
